Experimental data as given in the supplement of paper PMC11732987, “Enantioselective OTUD7B fragment discovery through chemoproteomics screening and high-throughput optimisation” (Communications Chemistry, 2025).
This is one part of the list. The data scatter; read single values as rough.

Chains of the proteins cited; added tags and fusions are not shown. Lines headed by an entry give the natural chain unless they say otherwise; changes in a name come on top. Residues count along the entry.
UniProt Q12931: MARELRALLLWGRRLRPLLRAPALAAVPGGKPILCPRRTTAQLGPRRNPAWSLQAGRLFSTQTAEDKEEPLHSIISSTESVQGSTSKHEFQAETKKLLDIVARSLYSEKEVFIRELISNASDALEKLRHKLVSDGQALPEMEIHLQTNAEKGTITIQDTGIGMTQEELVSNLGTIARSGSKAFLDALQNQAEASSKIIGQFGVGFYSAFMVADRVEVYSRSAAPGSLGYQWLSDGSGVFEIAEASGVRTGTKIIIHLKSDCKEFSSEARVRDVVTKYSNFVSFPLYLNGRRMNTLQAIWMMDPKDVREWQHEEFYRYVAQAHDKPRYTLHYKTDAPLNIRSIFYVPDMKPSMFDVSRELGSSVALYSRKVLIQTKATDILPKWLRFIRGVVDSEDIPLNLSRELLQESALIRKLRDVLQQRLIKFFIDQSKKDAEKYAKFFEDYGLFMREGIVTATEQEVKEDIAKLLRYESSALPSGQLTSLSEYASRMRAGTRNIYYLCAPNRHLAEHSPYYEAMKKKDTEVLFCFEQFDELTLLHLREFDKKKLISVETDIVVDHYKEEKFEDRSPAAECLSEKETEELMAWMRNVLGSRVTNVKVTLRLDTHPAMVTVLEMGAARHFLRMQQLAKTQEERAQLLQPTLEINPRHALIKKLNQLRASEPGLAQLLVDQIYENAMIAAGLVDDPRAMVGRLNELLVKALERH
UniProt Q9NV96, 2-24: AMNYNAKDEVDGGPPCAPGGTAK
UniProt Q86SZ2: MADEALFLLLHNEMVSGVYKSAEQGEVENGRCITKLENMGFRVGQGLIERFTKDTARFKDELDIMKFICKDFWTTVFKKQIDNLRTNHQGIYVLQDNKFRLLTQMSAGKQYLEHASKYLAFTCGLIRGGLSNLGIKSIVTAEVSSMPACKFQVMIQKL
UniProt O94826, 577-599: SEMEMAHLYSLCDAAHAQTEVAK
UniProt Q9Y4K3, 366-388: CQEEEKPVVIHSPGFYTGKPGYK
UniProt Q12888, 711-730: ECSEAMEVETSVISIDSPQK
UniProt Q9ULW0: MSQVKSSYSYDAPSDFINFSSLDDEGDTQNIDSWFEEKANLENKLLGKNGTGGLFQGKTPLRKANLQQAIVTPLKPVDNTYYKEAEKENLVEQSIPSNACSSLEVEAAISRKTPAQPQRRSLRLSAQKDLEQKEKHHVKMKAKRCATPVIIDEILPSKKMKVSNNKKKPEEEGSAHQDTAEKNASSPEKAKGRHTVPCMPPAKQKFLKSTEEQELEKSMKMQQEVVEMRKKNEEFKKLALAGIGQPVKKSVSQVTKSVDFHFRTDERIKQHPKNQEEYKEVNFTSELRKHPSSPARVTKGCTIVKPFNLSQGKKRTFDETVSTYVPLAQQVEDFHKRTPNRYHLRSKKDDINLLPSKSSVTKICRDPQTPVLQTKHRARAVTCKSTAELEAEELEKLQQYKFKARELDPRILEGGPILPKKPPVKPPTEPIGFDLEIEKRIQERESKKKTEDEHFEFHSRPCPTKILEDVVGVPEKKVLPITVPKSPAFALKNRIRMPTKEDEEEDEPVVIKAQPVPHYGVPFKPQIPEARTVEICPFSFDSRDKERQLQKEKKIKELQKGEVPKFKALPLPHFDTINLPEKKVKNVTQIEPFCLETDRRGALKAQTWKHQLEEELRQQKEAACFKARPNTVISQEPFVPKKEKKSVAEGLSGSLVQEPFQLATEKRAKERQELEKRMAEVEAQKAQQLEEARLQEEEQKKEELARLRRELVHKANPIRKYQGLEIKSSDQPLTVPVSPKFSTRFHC
UniProt Q96DC7: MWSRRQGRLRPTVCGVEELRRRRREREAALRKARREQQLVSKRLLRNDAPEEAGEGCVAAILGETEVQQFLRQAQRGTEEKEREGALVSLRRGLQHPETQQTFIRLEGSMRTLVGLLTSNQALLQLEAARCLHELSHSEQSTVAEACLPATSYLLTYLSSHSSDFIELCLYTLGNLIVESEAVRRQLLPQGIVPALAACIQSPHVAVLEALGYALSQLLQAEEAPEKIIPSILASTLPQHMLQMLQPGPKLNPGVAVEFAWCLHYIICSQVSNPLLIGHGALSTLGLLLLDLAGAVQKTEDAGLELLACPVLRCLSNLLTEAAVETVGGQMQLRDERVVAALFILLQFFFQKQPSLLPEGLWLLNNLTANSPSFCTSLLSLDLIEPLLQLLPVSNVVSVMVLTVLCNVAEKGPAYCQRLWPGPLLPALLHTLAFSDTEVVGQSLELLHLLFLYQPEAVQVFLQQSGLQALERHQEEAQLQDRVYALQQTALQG
UniProt Q9BU70: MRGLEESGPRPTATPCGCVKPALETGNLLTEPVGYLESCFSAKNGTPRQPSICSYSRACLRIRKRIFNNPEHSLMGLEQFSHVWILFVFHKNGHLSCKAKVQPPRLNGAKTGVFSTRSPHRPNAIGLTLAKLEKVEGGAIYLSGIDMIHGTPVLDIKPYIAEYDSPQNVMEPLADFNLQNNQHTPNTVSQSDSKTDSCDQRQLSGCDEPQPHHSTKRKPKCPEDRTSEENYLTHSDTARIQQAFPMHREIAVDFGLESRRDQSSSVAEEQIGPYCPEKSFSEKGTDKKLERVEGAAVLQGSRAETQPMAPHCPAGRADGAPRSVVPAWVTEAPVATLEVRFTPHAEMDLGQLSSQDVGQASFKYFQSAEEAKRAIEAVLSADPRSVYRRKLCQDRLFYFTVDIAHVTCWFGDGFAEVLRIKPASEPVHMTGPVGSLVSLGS
UniProt Q15643: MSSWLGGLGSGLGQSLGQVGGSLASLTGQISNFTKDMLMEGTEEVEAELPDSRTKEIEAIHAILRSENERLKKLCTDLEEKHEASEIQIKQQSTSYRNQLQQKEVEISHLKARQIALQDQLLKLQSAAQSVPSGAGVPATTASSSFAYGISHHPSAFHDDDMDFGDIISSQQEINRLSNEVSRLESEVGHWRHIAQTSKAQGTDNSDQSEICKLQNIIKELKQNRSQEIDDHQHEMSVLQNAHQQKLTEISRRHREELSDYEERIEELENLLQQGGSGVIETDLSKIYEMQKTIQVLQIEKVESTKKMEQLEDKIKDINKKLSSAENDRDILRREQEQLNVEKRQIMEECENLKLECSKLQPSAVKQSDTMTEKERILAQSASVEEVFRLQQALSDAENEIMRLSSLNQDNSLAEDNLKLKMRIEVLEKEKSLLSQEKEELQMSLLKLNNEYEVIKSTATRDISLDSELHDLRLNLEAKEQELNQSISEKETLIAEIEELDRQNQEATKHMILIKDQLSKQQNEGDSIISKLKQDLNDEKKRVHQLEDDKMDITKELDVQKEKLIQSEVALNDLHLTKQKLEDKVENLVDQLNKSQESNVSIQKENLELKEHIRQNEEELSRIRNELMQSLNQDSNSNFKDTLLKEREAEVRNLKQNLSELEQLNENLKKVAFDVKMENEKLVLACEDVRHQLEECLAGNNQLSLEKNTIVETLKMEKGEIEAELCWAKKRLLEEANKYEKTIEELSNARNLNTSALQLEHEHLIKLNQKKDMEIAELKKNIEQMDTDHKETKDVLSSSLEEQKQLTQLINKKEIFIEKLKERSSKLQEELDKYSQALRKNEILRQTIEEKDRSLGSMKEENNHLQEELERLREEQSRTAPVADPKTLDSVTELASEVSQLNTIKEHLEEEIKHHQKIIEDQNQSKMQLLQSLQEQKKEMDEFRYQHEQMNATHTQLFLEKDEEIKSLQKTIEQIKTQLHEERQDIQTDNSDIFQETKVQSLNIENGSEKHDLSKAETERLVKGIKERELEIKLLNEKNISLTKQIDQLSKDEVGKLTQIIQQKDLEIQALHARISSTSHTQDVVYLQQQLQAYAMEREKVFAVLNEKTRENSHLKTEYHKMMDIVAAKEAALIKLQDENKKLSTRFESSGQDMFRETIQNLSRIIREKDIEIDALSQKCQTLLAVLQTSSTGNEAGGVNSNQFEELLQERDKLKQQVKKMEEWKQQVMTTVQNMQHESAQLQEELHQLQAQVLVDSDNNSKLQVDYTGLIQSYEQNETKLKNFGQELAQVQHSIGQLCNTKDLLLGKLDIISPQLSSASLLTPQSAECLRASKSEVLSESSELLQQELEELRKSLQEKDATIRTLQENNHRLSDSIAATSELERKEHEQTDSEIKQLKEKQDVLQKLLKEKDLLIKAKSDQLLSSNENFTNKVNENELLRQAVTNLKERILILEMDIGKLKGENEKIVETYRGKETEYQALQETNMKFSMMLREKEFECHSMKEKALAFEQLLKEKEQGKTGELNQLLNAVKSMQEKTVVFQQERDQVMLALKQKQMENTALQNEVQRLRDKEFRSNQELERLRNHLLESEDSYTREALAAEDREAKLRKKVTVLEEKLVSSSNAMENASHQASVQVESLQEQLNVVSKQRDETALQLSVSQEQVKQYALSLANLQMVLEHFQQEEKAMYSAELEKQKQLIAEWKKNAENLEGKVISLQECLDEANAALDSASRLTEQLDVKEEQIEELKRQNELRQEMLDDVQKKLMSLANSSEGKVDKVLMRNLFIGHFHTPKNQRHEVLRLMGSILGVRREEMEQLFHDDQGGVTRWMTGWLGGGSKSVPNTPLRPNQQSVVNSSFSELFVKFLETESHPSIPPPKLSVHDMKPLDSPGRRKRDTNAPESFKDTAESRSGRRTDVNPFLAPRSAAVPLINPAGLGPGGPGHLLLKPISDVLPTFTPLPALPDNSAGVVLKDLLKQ
UniProt Q7Z392: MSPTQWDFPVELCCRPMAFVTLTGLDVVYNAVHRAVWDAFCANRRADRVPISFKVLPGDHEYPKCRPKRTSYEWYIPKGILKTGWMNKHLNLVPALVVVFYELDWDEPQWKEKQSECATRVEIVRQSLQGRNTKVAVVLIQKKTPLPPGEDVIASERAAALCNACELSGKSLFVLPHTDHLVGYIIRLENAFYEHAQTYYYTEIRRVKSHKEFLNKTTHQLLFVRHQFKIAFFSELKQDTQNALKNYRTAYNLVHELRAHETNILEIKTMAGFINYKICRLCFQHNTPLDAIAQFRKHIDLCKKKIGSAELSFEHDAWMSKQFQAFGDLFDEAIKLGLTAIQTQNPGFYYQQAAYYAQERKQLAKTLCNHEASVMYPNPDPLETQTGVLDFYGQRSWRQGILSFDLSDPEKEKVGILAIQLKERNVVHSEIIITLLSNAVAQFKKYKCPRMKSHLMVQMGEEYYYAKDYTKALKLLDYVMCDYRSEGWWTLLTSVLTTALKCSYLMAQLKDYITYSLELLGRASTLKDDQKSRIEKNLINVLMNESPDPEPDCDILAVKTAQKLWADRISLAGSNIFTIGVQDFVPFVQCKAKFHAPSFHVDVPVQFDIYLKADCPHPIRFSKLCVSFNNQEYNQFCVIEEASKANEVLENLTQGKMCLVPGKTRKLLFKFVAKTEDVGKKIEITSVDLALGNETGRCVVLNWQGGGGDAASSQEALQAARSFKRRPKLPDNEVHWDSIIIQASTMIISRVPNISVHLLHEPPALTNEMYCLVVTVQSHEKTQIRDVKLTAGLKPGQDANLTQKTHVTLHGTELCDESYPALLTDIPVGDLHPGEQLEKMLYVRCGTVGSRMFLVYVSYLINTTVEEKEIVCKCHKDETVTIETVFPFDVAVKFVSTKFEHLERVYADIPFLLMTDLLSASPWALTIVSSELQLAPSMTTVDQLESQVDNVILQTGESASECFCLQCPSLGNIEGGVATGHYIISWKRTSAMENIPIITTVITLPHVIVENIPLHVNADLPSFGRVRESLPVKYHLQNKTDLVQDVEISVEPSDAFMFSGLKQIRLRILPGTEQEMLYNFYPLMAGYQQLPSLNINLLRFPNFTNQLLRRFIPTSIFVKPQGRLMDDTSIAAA
UniProt Q14669, 188-221: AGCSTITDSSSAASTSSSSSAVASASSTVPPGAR
UniProt Q6Q0C0: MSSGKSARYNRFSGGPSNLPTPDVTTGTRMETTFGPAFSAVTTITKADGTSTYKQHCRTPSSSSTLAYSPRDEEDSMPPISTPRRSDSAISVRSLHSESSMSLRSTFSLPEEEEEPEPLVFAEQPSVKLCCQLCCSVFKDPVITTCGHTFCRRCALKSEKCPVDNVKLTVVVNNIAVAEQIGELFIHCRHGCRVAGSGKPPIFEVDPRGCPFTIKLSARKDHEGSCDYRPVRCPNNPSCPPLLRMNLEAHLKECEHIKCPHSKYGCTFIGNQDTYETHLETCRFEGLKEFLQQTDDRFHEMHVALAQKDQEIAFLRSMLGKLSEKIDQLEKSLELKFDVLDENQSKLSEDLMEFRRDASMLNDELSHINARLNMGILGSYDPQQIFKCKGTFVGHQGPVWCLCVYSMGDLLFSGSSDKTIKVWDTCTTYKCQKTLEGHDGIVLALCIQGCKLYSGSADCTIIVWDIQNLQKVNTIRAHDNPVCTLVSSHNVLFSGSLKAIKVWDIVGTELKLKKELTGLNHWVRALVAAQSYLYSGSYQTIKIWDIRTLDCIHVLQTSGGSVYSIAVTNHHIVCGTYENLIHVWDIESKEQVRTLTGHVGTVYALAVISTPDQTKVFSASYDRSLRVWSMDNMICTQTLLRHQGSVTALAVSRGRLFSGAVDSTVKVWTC

Columns and labels:
[1] = compound: ClCC(=O)N[C@@H]1CCCc2ccccc12; assay: log2 mean competition ratio of IA-DTB cysteine labelling (DMSO/compound) (log2 ratio); higher = stronger cysteine engagement by compound; conditions: treatment time: 4 h, cell line lysate: HEK293T
Experimental: (§1)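 IA-DTB competitive cysteine chemoproteomics in HEK293T RIPA lysate. Lysates were treated with compound 29 or 30 at 50 or 200 µM for 4 h, then IA-DTB (500 µM, 1 h), trypsin-digested, NeutrAvidin-enriched and analysed by diaPASEF. Competition ratio = intensity DMSO / intensity compound (n=4 treated, n=64 DMSO); binding: mean log2 CR ≥ 1 and p ≤ 0.05 plus QC filters. Target is the cysteine site.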

[2] = compound: ClCC(=O)N[C@H]1CCCc2ccccc12; assay: as above; conditions: treatment time: 4 h, cell line lysate: HEK293T
Experimental: as §1

Target | log2 mean competition ratio ([1]; 50 µM) | log2 mean competition ratio ([1]; 200 µM) | log2 mean competition ratio ([2]; 50 µM) | log2 mean competition ratio ([2]; 200 µM)
TRAP1 C573 (UniProt Q12931) | -0.155 | -0.159 | -0.128 | -0.269
TMEM259 C97 (UniProt Q4ZIN3) | 0.338 | -0.177 | 0.401 | -0.236
TMEM30A C17 (UniProt Q9NV96) | -0.0427 | -0.0876 | 0.384 | -0.037
TRAPPC6B C149 (UniProt Q86SZ2) | 0.0243 | 0.225 | -0.0144 | 0.289
TMEM201 C617 (UniProt Q5SNT2) | -0.214 | -0.088 | -0.559 | -0.051
TOMM70 C502 (UniProt O94826) | -0.266 | -0.164 | -0.682 | -0.169
TPRN C536 (UniProt Q4KMQ1) | -0.472 | 0.299 | -0.0991 | 0.0508
TNPO1 C620 (UniProt Q92973) | -0.0337 | -0.136 | 0.327 | -0.0762
TRIO C2599 (UniProt O75962) | -0.398 | -0.471 | -0.327 | -0.38
TRIM47 C347 (UniProt Q96LD4) | -0.0744 | 0.154 | 0.273 | -0.028
TRAF6 C366 (UniProt Q9Y4K3) | -0.207 | -0.242 | 0.0624 | -0.252
TRIM3 C227 (UniProt O75382) | -0.347 | 0.258 | -0.495 | 0.216
TJP2 C615 (UniProt Q9UDY2) | 0.0571 | -0.0275 | 0.0974 | -0.145
TMEM50B C89 | 0.0852 | -0.0104 | 0.241 | 0.086
TIGD2 C102 | -0.0696 | 0.181 | -0.123 | 0.136
TONSL C537 (UniProt Q96HA7) | 0.0329 | 0.214 | -0.052 | 0.166
TP53BP1 C772 (UniProt Q12888) | 0.221 | -0.0373 | 0.403 | 0.0314
TPI1 C127 (UniProt P60174) | -0.0534 | 0.2 | 0.0962 | -0.108
TOR1AIP1 C496 (UniProt Q5JTV8) | 0.408 | -0.146 | 0.116 | -0.181
TPX2 C145 (UniProt Q9ULW0) | 0.438 | 0.0498 | -0.121 | 0.0499
TPP2 C787 | 0.117 | -0.325 | -0.546 | -0.384
TNKS1BP1 C716 (UniProt Q9C0C2) | 0.173 | -0.00586 | 0.685 | 0.129
TMCO6 C416 (UniProt Q96DC7) | 0.0742 | 0.101 | 0.0232 | 0.065

In a second layout: results already given.
Target,log2 mean competition ratio ([1]; 50 µM),log2 mean competition ratio ([1]; 200 µM),log2 mean competition ratio ([2]; 50 µM),log2 mean competition ratio ([2]; 200 µM)
TNPO1 C620 (UniProt Q92973),-0.0337,-0.136,0.327,-0.0762
TIGD2 C102,-0.0696,0.181,-0.123,0.136
TPP2 C787,0.117,-0.325,-0.546,-0.384
TMCO6 C416 (UniProt Q96DC7),0.0742,0.101,0.0232,0.065

Additional results.

Target | log2 mean competition ratio ([1]; 50 µM) | log2 mean competition ratio ([1]; 200 µM) | log2 mean competition ratio ([2]; 50 µM) | log2 mean competition ratio ([2]; 200 µM)
TRMO C312 (UniProt Q9BU70) | -0.178 | 0.107 | 0.219 | -0.0329
TOP3A C190 (UniProt Q13472) | -0.0655 | -0.0469 | -0.0511 | -0.1
TLE3 C528 | 0.143 | -0.113 | -0.039 | -0.149
TRIM9 C356 | -0.156 | -0.193 | -0.0426 | -0.25
TIMM29 C182 (UniProt Q9BSF4) | -0.0156 | 0.221 | 0.00614 | -0.0933
TNPO3 C312 (UniProt Q9Y5L0) | -0.37 | 0.0862 | 0.0334 | -0.0486
TRIM33 C447 | -0.00165 | 0.17 | -0.182 | 0.135
TP53BP1 C712 (UniProt Q12888) | -0.315 | -0.407 | -0.0998 | -0.388
TRIP11 C726 (UniProt Q15643) | -0.0308 | -0.0492 | -0.216 | -0.297
TPT1 C28 | -0.276 | -0.255 | -0.13 | -0.208
TRAPPC11 C658 (UniProt Q7Z392) | -0.274 | -0.36 | 0.267 | -0.204
TLN2 C1365 (UniProt Q9Y4G6) | -0.279 | -0.0956 | -0.24 | -0.0196
TP53BP1 C513 (UniProt Q12888) | -0.225 | 0.103 | 0.257 | 0.316
TOMM70 C588 (UniProt O94826) | -0.0309 | -0.0193 | -0.217 | -0.159
TRIP12 C190 (UniProt Q14669) | -0.487 | -0.0937 | -0.731 | -0.0402
TMPO C518 | -0.265 | 0.219 | 0.464 | 0.364
TMEM45A C255 | 0.0368 | 0.0333 | -0.709 | 0.193
TRAPPC10 C162 (UniProt P48553) | 0.0614 | 0.264 | -0.488 | 0.183
TOE1 C371 (UniProt Q96GM8) | -0.148 | -0.446 | -0.36 | -0.172
TRAF7 C226 (UniProt Q6Q0C0) | -0.00359 | 0.072 | -0.168 | -0.046
TMEM30A C91 (UniProt Q9NV96) | -0.0891 | 0.399 | -0.122 | -0.103
TPP2 C342 | 0.0361 | -0.136 | -0.114 | -0.132
